Residue numbers refer to the chain shown, from its start. Numbers in names are those of the source.

B1: 2A-E1032K: KDM4A mutation (protein)
chain: MASESETLNPSARIMTFYPTMEEFRNFSRYIAYIESQGAHRAGLAKVVPPKEWKPRASYDDIDDLVIPAPIQQLVTGQSGLFTQYNIQKKAMTVREFRKIANSDKYCTPRYSEFEELERKYWKNLTFNPPIYGADVNGTLYEKHVDEWNIGRLRTILDLVEKESGITIEGVNTPYLYFGMWKTSFAWHTEDMDLYSINYLHFGEPKSWYSVPPEHGKRLERLAKGFFPGSAQSCEAFLRHKMTLISPLMLKKYGIPFDKVTQEAGEFMITFPYGYHAGFNHGFNCAESTNFATRRWIEYGKQAVLCSCRKDMVKISMDVFVRKFQPERYKLWKAGKDNTVIDHTLPTPEAAEFLKESELPPRAGNEEECPEEDMEGVEDGEEGDLKTSLAKHRIGTKRHRVCLEIPQEVSQSELFPKEDLSSEQYEMTECPAALAPVRPTHSSVRQVEDGLTFPDYSDSTEVKFEELKNVKLEEEDEEEEQAAAALDLSVNPASVGGRLVFSGSKKKSSSSLGSGSSRDSISSDSETSEPLSCRAQGQTGVLTVHSYAKGDGRVTVGEPCTRKKGSAARSFSERELAEVADEYMFSLEENKKSKGRRQPLSKLPRHHPLVLQECVSDDETSEQLTPEEEAEETEAWAKPLSQLWQNRPPNFEAEKEFNETMAQQAPHCAVCMIFQTYHQVEFGGFNQNCGNASDLAPQKQRTKPLIPEMCFTSTGCSTDINLSTPYLEEDGTSILVSCKKCSVRVHASCYGVPPAKASEDWMCSRCSANALEEDCCLCSLRGGALQRANDDRWVHVSCAVAILEARFVNIAERSPVDVSKIPLPRFKLKCIFCKKRRKRTAGCCVQCSHGRCPTAFHVSCAQAAGVMMQPDDWPFVVFITCFRHKIPNLERAKGALQSITAGQKVISKHKNGRFYQCEVVRLTTETFYEVNFDDGSFSDNLYPEDIVSQDCLQFGPPAEGEVVQVRWTDGQVYGAKFVASHPIQMYQVEFEDGSQLVVKRDDVYTLDEELPKRVKSRLSVASDMRFNEIFTKKEVKQEKKRQRVINSRYREDYIEPALYRAIME
B2: 2A-S28N: KDM4A mutation (protein)
chain: B1 chain with S28N, K1032E
B3: 2A-E23K: KDM4A mutation (protein)
chain: B1 chain with E23K, K1032E
B4: Q88R: KDM4D mutation (protein)
chain: METMKSKANCAQNPNCNIMIFHPTKEEFNDFDKYIAYMESQGAHRAGLAKIIPPKEWKARETYDNISEILIATPLQQVASGRAGVFTRYHKKKKAMTVGEYRHLANSKKYQTPPHQNFEDLERKYWKNRIYNSPIYGADISGSLFDENTKQWNLGHLGTIQDLLEKECGVVIEGVNTPYLYFGMWKTTFAWHTEDMDLYSINYLHLGEPKTWYVVPPEHGQRLERLARELFPGSSRGCGAFLRHKVALISPTVLKENGIPFNRITQEAGEFMVTFPYGYHAGFNHGFNCAEAINFATPRWIDYGKMASQCSCGEARVTFSMDAFVRILQPERYDLWKRGQDRAVVDHMEPRVPASQELSTQKEVQLPRRAALGLRQLPSHWARHSPWPMAARSGTRCHTLVCSSLPRRSAVSGTATQPRAAAVHSSKKPSSTPSSTPGPSAQIIHPSNGRRGRGRPPQKLRAQELTLQTPAKRPLLAGTTCTASGPEPEPLPEDGALMDKPVPLSPGLQHPVKASGCSWAPVP
B5: R263H: KDM4D mutation (protein)
chain: B4 chain with R88Q, R263H
B6: G394E: KDM4D mutation (protein)
chain: B4 chain with R88Q, G394E
B7: V214L*: KDM4D mutation (protein, UniProt Q6B0I6 1-523, looked up, variant V214L)
Lysine-specific demethylase 4D: B4 chain with R88Q, V214L
B8: R419Q: KDM4D mutation (protein)
chain: B4 chain with R88Q, R419Q
B9: R392H: KDM4D mutation (protein)
chain: B4 chain with R88Q, R392H
B10: E487K: KDM4D mutation (protein)
chain: B4 chain with R88Q, E487K
B11: L508R: KDM4D mutation (protein)
chain: B4 chain with R88Q, L508R
B12: K210N: KDM4D mutation (protein)
chain: B4 chain with R88Q, K210N
B13: S484L: KDM4D mutation (protein)
chain: B4 chain with R88Q, S484L
B14: G373C: KDM4D mutation (protein)
chain: B4 chain with R88Q, G373C
B15: G47D: KDM4D mutation (protein)
chain: B4 chain with G47D, R88Q
B16: S393I: KDM4D mutation (protein)
chain: B4 chain with R88Q, S393I
B17: R102C: KDM4D mutation (protein)
chain: B4 chain with R88Q, R102C
B18: P350S: KDM4D mutation (protein)
chain: B4 chain with R88Q, P350S
B19: P260H: KDM4D mutation (protein)
chain: B4 chain with R88Q, P260H
B20: R123P: KDM4D mutation (protein)
chain: B4 chain with R88Q, R123P
B21: E270D: KDM4D mutation (protein)
chain: B4 chain with R88Q, E270D
B22: A247D: KDM4D mutation (protein)
chain: B4 chain with R88Q, A247D
B23: V345M: KDM4D mutation (protein)
chain: B4 chain with R88Q, V345M
B24: R316W: KDM4D mutation (protein)
chain: B4 chain with R88Q, R316W
B25: R243W: KDM4D mutation (protein)
chain: B4 chain with R88Q, R243W
B26: R82W: KDM4D mutation (protein)
chain: B4 chain with R82W, R88Q
B27: K337R: KDM4D mutation (protein)
chain: B4 chain with R88Q, K337R
B28: R332H: KDM4D mutation (protein)
chain: B4 chain with R88Q, R332H
B29: R338C: KDM4D mutation (protein)
chain: B4 chain with R88Q, R338C
B30: D64N: KDM4D mutation (protein)
chain: B4 chain with D64N, R88Q
B31: R375I: KDM4D mutation (protein)
chain: B4 chain with R88Q, R375I
B32: P276L: KDM4D mutation (protein)
chain: B4 chain with R88Q, P276L

One series is described as follows: Subcellular localization of KDM4 variants (immunofluorescence). Type of series: cell-based. The conditions noted are these: KDM4A mutations; % nuclear.
As to B1, the Localization entry is “++ (++ indicates 60-79% nuclear)”.

In the case of B2, the Localization result is “+++ (+++ indicates >80% nuclear)”.

Regarding B3, the Localization entry is recorded as “− (− indicates 20-39% nuclear)”.

The same series, now with this note: KDM4D mutations.
Regarding B4, the Localization entry is given as “+++ (+++ indicates >80% nuclear)”.

Take B5: the Localization entry is on record as “+++ (+++ indicates >80% nuclear)”.

As for B6, the Localization entry is “+++ (+++ indicates >80% nuclear)”.

Turning to B7, the Localization result is “− (− indicates 20-39% nuclear)”.

B8: the Localization entry is “− (− indicates 20-39% nuclear)”.

Take B9: the Localization result is “+++ (+++ indicates >80% nuclear)”.

Take B10: the Localization result is recorded as “+++ (+++ indicates >80% nuclear)”.

As for B11, the Localization entry is recorded as “+++ (+++ indicates >80% nuclear)”.

Consider B12, for which the Localization entry is reported as “− (− indicates 20-39% nuclear)”.

B13: the Localization entry is given as “+++ (+++ indicates >80% nuclear)”.

B14: the Localization entry was “+++ (+++ indicates >80% nuclear)”.

As to B15, the Localization result is “− (− indicates 20-39% nuclear)”.

For the molecule B16, the Localization entry is recorded as “+++ (+++ indicates >80% nuclear)”.

As to B17, the Localization entry is “+++ (+++ indicates >80% nuclear)”.

Take B18: the Localization entry was “+++ (+++ indicates >80% nuclear)”.

For the molecule B19, the Localization result was “+++ (+++ indicates >80% nuclear)”.

On to B20, for which the Localization entry is reported as “− (− indicates 20-39% nuclear)”.

As to B21, the Localization result is recorded as “− (− indicates 20-39% nuclear)”.

With B22, the Localization result is on record as “− (− indicates 20-39% nuclear)”.

As to B23, the Localization result is given as “+++ (+++ indicates >80% nuclear)”.

As for B24, the Localization entry is “− (− indicates 20-39% nuclear)”.

B25: the Localization result is recorded as “− (− indicates 20-39% nuclear)”.

For the molecule B26, the Localization entry is reported as “− (− indicates 20-39% nuclear)”.

As to B27, the Localization result is given as “+++ (+++ indicates >80% nuclear)”.

For the molecule B28, the Localization entry is reported as “+++ (+++ indicates >80% nuclear)”.

As to B29, the Localization entry is given as “+++ (+++ indicates >80% nuclear)”.

For the molecule B30, the Localization entry is recorded as “− (− indicates 20-39% nuclear)”.

As for B31, the Localization entry is recorded as “+++ (+++ indicates >80% nuclear)”.

For the molecule B32, the Localization result is “− (− indicates 20-39% nuclear)”.
